PubChem BioAssay AID720505 – Drosophila RNAi Screening Center, 2013

Assay: 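Fly regulators or components of the CRAC channel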 (primary screen)
Cells: Drosophila S2R+ cells
Knock-down reagent: long dsRNA against Drosophila genes
Treatment: thapsigargin (2 µM) in calcium-free buffer to empty internal stores, then 2 mM calcium added back
Measured: 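Stores emptied by 2 µM thapsigargin without calcium, then 2 mM calcium re-added; fluo-4 fluorescence followed by FLIPR in 384-well plates, per-well averaged endpoint, raw; two screen passes, some wells retested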
Scale: calcium signal: higher = more calcium entry after store depletion
Active means: 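Knock-downs counted as hits when calcium entry dropped relative to STIM1 positive and Rho1 negative controls present on each plate; roughly 1500 genes called, with reductions of differing size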
Calls: active = called as lowering calcium entry; inactive = not called
The deposit covers about 20,000 reagents; shown is an unselected part of those with a known target gene and a result. Of all reagents, about 2,100 (10%) got an active call. 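Raw plate signals without normalisation; calls rest on control-based scores that were not deposited; replicate 2 separates called from uncalled poorly.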 A plus sign joins genes that one reagent is predicted to hit. Not stated in the record: the amount of reagent, the time to read-out.

predicted target | DRSC id | calcium signal, replicate 1 | calcium signal, replicate 2 | outcome
CG6661 + asRNA:CR42871 | DRSC10687 | 80.6 | 68.1 | inactive
CG43101 | DRSC05520 | 82.3 | 120 | inactive
RabX6 | DRSC08223 | 102 | 137 | inactive
nAChRalpha4 (nicotinic Acetylcholine Receptor alpha4) | DRSC11925 | – | – | inactive
nAChRalpha4 (nicotinic Acetylcholine Receptor alpha4) | DRSC11929 | – | – | active
cdm (cadmus) | DRSC16213 | 188 | 217 | inactive
CG16781 | DRSC18117 | 130 | 119 | inactive
Ufsp1 (UFM1 specific peptidase 1) | DRSC04958 | 79.1 | 90.1 | inactive
Eip78C (Ecdysone-induced protein 78C) | DRSC11864 | 83 | 167 | inactive
Eip78C (Ecdysone-induced protein 78C) | DRSC23097 | 100 | 121 | inactive
Hs3st-B (Heparan sulfate 3-O sulfotransferase-B) | DRSC20067 | 57.8 | 173 | active
Tasp1 (Taspase 1) | DRSC10495 | 163 | 80.8 | inactive
Arfrp1 (ADP-ribosylation factor related protein 1) | DRSC18417 | 130 | 124 | inactive
Eig71Ej | DRSC11157 | 68.8 | 182 | inactive
CG4424 | DRSC15576 | 212 | 207 | inactive
CG14280 | DRSC14761 | 198 | 208 | inactive
GluRIIB (Glutamate receptor IIB) | DRSC03335 | 113 | 113 | inactive
slim (scruin like at the midline) | DRSC06921 | 72.2 | 134 | active
CG18327 | DRSC06722 | 107 | 187 | inactive
asRNA:CR43299 + CG8119 | DRSC20083 | 134 | 174 | inactive
CG14352 | DRSC00382 | 233 | 128 | inactive
Pvr (PDGF- and VEGF-receptor related) | DRSC03080 | 107 | 174 | inactive
HIPP1 (HP1 and insulator partner protein 1) | DRSC11748 | 94.7 | 119 | inactive
CG18294 + 825-Oak + CG32214 + 2 more | DRSC22210 | 98.8 | 262 | inactive
puml (pummelig) | DRSC06793 | 73.3 | 98.3 | inactive
CG7275 | DRSC10796 | 64.6 | 110 | active
l(2)dtl (lethal-(2)-denticleless) | DRSC04697 | 66.9 | 117 | active
CG10958 | DRSC17768 | 104 | 78.7 | inactive
Pgd (Phosphogluconate dehydrogenase) | DRSC18697 | 160 | 92.4 | inactive
Sec3 (Secretory 3) | DRSC10384 | 101 | 84 | inactive
CG1701 | DRSC06641 | 136 | 177 | inactive
CG4815 | DRSC15653 | 206 | 202 | inactive
snRNP-U1-C (small ribonucleoprotein particle U1 subunit C) | DRSC15804 | 161 | 115 | inactive
trp (transient receptor potential) | DRSC17088 | 163 | 144 | inactive

4 entries from above, sorted by “calcium signal, replicate 1”, lowest first:
predicted target | DRSC id | calcium signal, replicate 1 | calcium signal, replicate 2 | outcome
slim (scruin like at the midline) | DRSC06921 | 72.2 | 134 | active
CG18327 | DRSC06722 | 107 | 187 | inactive
GluRIIB (Glutamate receptor IIB) | DRSC03335 | 113 | 113 | inactive
asRNA:CR43299 + CG8119 | DRSC20083 | 134 | 174 | inactive
